In paper PMC11737852 (2025):
Results are given in words; binding and its absence hold for the method and conditions named. In cells and extracts the contact can be indirect. Binding calls can cover weak binding; strength is not graded here.

Amino acid sequences for entries named in this document (tags omitted). A change or cut given only in a name is not applied to a line headed by its entry.
UniProt Q14653: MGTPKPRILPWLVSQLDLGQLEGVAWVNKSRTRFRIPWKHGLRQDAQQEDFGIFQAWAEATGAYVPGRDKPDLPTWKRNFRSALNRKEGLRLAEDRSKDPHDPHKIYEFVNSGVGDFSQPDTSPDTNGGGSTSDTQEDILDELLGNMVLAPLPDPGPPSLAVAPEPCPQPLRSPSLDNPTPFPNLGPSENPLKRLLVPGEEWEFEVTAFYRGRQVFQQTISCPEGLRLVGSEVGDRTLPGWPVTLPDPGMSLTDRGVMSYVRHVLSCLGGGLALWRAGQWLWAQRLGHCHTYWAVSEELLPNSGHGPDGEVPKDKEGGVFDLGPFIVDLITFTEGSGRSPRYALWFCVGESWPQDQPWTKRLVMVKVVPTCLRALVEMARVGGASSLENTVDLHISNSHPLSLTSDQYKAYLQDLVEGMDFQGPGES
UniProt P45974: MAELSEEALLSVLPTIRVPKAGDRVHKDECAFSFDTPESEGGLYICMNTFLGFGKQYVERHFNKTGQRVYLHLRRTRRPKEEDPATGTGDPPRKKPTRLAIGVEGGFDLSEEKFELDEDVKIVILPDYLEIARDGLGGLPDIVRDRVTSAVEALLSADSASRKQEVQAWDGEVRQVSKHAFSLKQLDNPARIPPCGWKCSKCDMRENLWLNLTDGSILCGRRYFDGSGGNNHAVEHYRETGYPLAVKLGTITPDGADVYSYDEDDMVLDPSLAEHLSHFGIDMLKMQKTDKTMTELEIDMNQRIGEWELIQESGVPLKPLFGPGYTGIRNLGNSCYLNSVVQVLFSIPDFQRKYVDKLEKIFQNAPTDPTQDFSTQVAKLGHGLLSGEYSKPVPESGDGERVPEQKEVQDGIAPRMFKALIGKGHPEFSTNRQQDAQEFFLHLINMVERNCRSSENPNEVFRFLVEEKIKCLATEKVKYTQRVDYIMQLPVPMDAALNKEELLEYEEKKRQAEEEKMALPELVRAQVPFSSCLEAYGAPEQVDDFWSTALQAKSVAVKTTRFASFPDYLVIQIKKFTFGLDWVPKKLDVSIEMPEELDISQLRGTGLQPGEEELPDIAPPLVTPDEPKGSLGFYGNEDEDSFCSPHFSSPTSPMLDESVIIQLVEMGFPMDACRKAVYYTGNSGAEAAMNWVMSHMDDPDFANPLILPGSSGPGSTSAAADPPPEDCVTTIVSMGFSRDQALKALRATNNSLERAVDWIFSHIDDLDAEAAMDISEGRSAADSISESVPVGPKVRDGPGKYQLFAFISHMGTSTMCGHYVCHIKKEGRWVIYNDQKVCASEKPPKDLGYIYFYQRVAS

Molecular target: Flag-IRF3 (UniProt Q14653)
Test: proximity ligation; Duolink in situ PLA in HEK293T co-transfected for 24 h with Myc-USP5 and Flag-IRF3 constructs, then SeV (0.1 MOI) for 6 h; mouse anti-Flag and rabbit anti-Myc

Myc-USP5-ΔUBA (from UniProt P45974) (enzyme)
binding: binds
